Measurements as given in article PMC7026046.
Results are given in words; binding and its absence hold for the method and conditions named. In cells and extracts the contact can be indirect. Some entries that bind do so weakly or less than the wild type.

By UniProt entry, the sequences of proteins in these tests, tags left out.
UniProt P35222: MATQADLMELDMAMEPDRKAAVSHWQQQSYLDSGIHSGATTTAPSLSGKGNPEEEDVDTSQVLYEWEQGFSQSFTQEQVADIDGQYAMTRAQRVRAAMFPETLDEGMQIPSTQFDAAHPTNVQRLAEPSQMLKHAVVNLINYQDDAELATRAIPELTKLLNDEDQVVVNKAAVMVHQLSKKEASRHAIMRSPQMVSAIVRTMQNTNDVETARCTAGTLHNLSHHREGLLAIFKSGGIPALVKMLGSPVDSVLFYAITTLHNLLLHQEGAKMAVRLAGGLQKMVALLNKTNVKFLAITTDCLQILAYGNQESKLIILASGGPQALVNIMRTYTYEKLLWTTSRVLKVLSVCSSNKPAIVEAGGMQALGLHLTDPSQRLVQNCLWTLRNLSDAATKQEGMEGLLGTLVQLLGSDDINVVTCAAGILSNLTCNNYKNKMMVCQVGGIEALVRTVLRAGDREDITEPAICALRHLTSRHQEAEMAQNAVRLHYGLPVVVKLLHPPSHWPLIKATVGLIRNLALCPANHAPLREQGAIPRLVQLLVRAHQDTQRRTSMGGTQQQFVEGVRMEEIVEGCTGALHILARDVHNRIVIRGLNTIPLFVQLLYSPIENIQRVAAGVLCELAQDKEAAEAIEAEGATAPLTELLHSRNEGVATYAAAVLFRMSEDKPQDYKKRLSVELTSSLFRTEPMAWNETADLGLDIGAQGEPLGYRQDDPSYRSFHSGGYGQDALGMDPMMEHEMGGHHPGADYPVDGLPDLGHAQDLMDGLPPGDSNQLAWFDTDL

Target: T1, FOXM1 (human (endogenous in MV4-11)) (UniProt Q08050)
T1 sequence: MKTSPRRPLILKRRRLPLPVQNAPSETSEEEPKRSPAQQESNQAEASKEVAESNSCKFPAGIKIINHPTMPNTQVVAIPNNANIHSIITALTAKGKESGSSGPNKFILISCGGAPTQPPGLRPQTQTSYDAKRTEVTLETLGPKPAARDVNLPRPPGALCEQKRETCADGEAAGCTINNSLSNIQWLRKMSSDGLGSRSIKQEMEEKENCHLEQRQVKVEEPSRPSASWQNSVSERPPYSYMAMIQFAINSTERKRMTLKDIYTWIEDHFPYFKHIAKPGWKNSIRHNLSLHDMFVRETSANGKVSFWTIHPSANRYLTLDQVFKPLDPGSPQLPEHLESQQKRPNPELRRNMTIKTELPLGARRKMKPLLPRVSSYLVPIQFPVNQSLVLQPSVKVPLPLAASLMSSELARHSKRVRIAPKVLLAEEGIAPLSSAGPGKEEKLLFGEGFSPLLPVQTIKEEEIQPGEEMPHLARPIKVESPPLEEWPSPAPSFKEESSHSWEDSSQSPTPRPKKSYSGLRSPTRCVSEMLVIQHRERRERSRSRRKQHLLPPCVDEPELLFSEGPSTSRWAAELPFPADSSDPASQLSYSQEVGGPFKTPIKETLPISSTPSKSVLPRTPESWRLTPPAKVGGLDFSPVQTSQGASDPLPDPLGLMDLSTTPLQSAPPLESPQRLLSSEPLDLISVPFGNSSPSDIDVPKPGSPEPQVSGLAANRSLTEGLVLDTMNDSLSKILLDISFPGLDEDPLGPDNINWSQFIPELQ
Assay: co-IP; endogenous proteins in MV4-11 cell lysate; NETN buffer (150 mM NaCl, 1 mM EDTA, 2 mM Tris-HCl, 0.5% NP-40, pH 7.5); FOXM1 antibody plus Protein G agarose beads, 4 °C overnight; western blot

binding: binds
Substance: β-CATENIN (from UniProt P35222 1-781)
